This is an account of results in paper PMC4381262.

Protein sequences, listed by entry. Tags and fused reporters are not part of them.
UniProt Q8R550: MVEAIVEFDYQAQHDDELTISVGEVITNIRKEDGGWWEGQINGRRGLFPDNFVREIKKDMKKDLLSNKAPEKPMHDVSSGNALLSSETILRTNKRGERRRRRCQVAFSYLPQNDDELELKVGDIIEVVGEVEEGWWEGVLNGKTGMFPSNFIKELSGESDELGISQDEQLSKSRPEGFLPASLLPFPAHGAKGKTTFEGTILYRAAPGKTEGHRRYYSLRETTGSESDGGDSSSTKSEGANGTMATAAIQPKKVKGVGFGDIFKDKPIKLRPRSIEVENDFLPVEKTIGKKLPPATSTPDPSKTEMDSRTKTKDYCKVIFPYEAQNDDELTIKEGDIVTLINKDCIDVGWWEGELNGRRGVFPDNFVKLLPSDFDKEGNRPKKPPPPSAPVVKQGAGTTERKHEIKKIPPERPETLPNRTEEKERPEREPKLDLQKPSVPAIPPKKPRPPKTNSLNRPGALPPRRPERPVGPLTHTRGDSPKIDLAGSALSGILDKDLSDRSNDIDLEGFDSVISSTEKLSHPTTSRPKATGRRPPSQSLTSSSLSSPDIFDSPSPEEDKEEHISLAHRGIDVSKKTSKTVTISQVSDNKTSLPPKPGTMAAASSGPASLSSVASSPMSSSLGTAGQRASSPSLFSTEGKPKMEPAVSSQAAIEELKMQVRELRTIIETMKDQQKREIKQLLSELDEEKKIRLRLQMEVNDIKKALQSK

The test concerns the target CIN85 (Cbl-interacting protein of 85 kDa), endogenous mouse protein (mouse (endogenous in RMA and IG10 cells and in mouse colon tissue)) (UniProt Q8R550). Nature of the test: co-IP; whole cell lysates (RIPA buffer, 500 ug protein) of RMA/MUC1, IG10/MUC1 or Caco-2 cells precipitated with anti-CIN85 antibody or control IgG (16 h, 4 °C, protein G-Sepharose); washes with RIPA containing 0.5 M NaCl, 2% SDS; immunoblotted with anti-MUC1 VU 4H5 and anti-Cbl. (In general: In western blotting, separated proteins are transferred to a membrane and probed.)

These are yes or no findings as the source states them, for the method shown. Binding seen in cells or lysates may run through a third protein. Some binding calls cover weakened binding; strength is not graded here.

As for “Cbl (c-Cbl, Casitas B-lineage lymphoma), endogenous mouse protein (from UniProt P22682 1-913)”, the binding result is recorded as “binds”.
